Some of the results follow.
What was measured:
Test in all cases: log2 fold change, soluble protein after heating vs DMSO (PISA); higher = thermal stabilisation; K562 cells, 10 uM, 30 min; active = over 0.2 and 3.5 SD of the protein, either way, in both replicates (recomputed)
[1] = compound: C1=CC=C(C=C1)[C@H](COC2=CC3=C(C=C2)NC(=O)N3)NC(=O)C4=CC=CN(C4=O)CC5=CC(=C(C=C5)F)F
Method in brief: (§1)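 K562 cells at 2×10^6 cells/mL were exposed to 10 μM compound for 30 min, then aliquots were heated for 3 min across 48°C-58°C, pooled, and extracted in PBS containing 0.5% NP-40 at 4°C. The supernatant after 21,000xg for 90 min was taken as soluble protein and measured by TMTpro 16plex LC-MS/MS with channel sums equalised. Thermal stability is reported relative to control samples, with values from duplicates. Fold changes are given on a log2 scale.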

Chains of the proteins cited; added tags and fusions are not shown. Lines headed by an entry give the natural chain unless they say otherwise; changes in a name come on top.
UniProt P58107: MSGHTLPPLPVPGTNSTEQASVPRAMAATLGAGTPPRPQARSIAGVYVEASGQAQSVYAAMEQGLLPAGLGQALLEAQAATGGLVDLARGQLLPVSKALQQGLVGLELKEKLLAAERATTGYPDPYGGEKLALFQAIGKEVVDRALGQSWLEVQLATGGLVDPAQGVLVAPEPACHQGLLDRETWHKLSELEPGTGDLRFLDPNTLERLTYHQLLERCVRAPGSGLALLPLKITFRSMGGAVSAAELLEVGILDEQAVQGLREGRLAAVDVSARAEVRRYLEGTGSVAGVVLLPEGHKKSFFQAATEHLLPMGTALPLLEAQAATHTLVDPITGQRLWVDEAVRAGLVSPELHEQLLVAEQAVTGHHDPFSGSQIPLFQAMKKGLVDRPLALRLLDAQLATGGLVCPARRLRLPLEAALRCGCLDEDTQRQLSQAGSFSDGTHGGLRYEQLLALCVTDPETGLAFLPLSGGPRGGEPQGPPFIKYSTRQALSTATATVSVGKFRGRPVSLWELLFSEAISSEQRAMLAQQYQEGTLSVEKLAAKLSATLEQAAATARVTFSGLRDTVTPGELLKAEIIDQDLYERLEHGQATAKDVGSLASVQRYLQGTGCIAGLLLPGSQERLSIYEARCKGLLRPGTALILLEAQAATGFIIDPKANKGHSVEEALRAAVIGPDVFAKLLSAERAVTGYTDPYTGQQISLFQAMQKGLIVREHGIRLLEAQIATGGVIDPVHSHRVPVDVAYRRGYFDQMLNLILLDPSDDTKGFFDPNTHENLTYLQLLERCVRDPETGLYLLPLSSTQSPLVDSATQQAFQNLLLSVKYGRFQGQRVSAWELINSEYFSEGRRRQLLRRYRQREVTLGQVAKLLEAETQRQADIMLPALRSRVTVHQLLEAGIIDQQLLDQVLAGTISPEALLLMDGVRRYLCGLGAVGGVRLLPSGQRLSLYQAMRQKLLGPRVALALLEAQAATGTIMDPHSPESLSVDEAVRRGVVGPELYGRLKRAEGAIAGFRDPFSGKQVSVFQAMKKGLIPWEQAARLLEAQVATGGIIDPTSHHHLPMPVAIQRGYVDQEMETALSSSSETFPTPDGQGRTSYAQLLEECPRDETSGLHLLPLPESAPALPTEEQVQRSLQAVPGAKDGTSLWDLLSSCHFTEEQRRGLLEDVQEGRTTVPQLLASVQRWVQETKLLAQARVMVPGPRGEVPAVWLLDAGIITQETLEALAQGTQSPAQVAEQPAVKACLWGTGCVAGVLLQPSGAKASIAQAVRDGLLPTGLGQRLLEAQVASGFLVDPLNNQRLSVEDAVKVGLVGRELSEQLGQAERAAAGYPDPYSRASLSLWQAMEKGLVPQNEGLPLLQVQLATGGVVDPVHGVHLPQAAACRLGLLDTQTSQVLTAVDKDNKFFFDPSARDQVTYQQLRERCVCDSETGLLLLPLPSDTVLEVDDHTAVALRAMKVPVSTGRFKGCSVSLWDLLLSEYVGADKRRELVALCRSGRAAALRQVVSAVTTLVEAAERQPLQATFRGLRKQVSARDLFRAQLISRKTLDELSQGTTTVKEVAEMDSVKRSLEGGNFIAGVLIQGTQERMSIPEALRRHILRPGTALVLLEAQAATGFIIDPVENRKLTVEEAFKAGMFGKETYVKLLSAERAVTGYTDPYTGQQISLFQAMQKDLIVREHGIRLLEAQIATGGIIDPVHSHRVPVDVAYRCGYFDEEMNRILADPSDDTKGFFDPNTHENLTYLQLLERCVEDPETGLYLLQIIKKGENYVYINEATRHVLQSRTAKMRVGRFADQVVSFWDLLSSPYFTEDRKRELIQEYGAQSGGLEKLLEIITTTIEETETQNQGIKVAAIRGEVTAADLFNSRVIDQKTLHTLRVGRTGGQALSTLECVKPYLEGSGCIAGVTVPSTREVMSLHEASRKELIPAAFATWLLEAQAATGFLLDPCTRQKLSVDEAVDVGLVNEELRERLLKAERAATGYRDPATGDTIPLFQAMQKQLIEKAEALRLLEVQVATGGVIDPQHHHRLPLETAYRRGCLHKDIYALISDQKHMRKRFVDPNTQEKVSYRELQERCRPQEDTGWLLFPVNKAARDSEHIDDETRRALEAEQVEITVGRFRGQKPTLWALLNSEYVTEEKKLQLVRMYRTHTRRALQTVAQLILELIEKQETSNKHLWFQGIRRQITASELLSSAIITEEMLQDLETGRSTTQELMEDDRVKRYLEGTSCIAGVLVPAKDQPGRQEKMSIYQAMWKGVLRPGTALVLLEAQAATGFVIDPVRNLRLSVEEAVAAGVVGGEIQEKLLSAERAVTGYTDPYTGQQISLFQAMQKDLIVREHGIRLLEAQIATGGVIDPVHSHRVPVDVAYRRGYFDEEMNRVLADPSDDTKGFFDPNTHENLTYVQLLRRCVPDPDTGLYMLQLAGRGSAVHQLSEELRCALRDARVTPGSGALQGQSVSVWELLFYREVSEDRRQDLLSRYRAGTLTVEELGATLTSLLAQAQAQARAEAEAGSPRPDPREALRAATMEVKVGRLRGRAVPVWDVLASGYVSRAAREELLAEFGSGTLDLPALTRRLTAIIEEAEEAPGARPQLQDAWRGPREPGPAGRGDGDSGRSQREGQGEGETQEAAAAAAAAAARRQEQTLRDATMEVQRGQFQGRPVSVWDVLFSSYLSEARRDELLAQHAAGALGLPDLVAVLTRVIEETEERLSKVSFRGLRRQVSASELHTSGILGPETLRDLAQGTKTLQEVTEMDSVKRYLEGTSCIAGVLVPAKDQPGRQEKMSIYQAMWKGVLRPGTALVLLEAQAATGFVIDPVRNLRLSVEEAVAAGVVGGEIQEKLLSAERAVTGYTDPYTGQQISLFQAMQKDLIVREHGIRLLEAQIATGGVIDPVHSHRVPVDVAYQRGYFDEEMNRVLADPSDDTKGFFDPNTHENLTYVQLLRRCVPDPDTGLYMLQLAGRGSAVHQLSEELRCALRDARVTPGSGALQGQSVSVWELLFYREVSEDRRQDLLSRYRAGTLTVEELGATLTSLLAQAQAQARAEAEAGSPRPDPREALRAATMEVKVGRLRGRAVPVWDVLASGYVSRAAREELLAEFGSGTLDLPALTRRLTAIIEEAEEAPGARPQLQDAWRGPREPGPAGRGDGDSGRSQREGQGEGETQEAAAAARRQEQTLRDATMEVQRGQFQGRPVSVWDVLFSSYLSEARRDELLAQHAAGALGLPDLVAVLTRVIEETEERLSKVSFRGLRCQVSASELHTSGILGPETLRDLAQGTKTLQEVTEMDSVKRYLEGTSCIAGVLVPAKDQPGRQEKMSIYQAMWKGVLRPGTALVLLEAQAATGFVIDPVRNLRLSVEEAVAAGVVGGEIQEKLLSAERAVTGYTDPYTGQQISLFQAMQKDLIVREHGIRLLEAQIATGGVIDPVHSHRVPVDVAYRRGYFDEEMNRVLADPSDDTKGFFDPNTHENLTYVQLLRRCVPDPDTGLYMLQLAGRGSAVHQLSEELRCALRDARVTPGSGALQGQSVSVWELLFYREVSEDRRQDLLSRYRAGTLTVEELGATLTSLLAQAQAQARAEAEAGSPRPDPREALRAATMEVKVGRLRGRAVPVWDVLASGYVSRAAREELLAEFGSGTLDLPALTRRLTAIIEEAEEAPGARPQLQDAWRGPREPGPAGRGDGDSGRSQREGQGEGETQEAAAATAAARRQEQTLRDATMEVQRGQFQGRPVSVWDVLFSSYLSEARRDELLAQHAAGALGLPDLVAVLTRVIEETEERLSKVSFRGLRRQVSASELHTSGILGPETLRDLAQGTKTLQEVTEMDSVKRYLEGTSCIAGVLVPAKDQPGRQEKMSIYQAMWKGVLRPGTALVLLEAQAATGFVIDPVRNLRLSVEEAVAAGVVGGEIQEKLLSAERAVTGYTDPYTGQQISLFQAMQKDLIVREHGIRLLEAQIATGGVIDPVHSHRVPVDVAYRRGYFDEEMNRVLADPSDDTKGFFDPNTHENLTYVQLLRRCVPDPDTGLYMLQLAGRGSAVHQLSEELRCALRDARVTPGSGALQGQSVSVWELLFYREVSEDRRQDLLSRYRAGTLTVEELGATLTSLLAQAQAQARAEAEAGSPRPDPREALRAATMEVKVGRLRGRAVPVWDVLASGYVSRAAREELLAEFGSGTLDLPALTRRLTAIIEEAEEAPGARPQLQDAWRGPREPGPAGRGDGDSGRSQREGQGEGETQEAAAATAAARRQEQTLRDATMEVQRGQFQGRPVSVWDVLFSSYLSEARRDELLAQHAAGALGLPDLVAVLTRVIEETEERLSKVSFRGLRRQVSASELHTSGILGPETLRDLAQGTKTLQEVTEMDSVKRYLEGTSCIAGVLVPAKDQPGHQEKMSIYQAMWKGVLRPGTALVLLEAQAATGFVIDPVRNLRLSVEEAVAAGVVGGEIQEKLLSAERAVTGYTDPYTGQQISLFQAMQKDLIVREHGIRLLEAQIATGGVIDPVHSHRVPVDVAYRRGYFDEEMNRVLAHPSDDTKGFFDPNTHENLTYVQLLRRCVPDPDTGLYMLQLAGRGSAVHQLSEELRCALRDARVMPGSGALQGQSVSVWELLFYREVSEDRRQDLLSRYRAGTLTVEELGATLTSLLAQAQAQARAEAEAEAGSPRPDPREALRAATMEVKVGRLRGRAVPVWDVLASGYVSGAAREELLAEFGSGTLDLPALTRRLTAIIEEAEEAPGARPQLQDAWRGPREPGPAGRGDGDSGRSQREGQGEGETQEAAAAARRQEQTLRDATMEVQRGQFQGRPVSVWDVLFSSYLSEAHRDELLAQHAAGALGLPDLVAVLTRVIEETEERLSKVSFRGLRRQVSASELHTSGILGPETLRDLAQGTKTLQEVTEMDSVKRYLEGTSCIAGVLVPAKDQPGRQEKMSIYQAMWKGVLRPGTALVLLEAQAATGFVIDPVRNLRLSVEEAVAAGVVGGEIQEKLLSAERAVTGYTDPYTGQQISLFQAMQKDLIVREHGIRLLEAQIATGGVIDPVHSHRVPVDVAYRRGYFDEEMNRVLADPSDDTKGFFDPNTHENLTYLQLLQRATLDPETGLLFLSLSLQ
UniProt Q96RQ1: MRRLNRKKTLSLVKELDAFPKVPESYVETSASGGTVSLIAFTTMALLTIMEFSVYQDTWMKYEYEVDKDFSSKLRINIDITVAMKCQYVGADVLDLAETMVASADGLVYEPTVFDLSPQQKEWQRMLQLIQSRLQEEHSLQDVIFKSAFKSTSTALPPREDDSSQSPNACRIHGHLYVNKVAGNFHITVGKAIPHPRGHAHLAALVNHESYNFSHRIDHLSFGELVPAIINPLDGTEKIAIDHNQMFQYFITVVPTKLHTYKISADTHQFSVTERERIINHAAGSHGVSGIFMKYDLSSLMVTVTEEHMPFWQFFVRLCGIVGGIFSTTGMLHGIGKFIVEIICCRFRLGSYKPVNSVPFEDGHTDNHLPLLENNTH
UniProt P16930: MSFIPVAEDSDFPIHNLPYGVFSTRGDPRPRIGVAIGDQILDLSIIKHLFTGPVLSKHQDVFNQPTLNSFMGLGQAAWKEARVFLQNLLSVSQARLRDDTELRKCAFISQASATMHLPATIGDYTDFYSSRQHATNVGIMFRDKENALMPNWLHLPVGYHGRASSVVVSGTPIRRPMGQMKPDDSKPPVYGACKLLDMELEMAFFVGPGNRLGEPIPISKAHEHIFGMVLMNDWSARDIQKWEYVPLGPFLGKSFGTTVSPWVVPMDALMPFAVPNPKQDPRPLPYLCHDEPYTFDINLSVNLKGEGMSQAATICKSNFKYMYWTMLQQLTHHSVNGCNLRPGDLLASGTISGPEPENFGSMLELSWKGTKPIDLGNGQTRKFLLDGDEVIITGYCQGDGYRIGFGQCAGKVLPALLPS
UniProt Q9BPY3: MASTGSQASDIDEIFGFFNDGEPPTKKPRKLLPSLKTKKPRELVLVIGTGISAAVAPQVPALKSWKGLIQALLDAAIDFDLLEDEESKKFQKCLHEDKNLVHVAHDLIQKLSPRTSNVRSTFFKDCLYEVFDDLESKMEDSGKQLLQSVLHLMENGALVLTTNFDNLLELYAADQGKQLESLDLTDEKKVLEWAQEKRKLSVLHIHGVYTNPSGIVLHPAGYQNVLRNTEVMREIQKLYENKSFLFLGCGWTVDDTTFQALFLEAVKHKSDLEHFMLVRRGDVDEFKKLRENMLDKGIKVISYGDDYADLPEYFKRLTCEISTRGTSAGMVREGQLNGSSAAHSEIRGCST
UniProt Q9NQT4, whole entry, looked up: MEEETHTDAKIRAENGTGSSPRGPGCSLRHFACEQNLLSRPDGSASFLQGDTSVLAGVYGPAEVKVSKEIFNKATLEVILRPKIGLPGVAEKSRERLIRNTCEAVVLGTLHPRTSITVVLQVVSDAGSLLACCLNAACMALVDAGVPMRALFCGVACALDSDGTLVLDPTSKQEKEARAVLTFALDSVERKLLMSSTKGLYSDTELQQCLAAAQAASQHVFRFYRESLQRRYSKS

[2] = compound: CC1=C(SC2=C1C(=N[C@H](C3=NN=C(N32)C)CC(=O)N)C4=CC=C(C=C4)Cl)C
Method in brief: as §1

[3] = compound: CC1=C2C(=CC=C1)N=C(N(C2=O)C3=CC=CC=C3C)CN4C=NC5=C(N=CN=C54)N
Method in brief: as §1

[4] = compound: Cc1sc2c(c1C)C(c1ccc(Cl)cc1)=N[C@@H](CC(=O)OC(C)(C)C)c1nnc(C)n1-2
Method in brief: as §1

[5] = compound: c1ccc([C@@H]2C[C@H]2NC2CCNCC2)cc1
Method in brief: as §1

Measured: log2 fold change

ERLEC1 (UniProt Q96DZ1)
inactive: [1] 0.039 | [2] 0.013 | [3] 0.041 | [4] -0.039 | [5] -0.023

FAM122A (UniProt Q96E09)
inactive: [1] 0.008 | [2] -0.055 | [3] -0.022 | [4] 0.158 | [5] 0.083

EXOSC6 (UniProt Q5RKV6)
inactive: [1] 0.05 | [2] -0.016 | [3] -0.044 | [4] -0.037 | [5] 0.006

EPPK1 (UniProt P58107)
inactive: [1] 0.135 | [2] -0.217 | [3] -0.172 | [4] 0.289 | [5] 0.027

FAM177A1 isoform 2 (UniProt Q8N128)
inactive: [1] -0.073 | [2] 0.047 | [3] 0.17 | [4] -0.002 | [5] 0.028

ERCC6L (UniProt Q2NKX8)
inactive: [1] -0.118 | [2] -0.021 | [3] 0.097 | [4] 0.164 | [5] 0.061

F5 (UniProt P12259)
inactive: [1] -0.025 | [2] -0.091 | [3] 0.003 | [4] 0.077 | [5] 0.014

ERCC4 (UniProt Q92889)
inactive: [1] -0.057 | [2] 0.125 | [3] 0.273 | [4] 0.123 | [5] 0

ETNPPL (UniProt Q8TBG4)
inactive: [1] -0.16 | [2] -0.023 | [3] -0.07 | [4] 0.083 | [5] 0.017

FAHD1 (UniProt Q6P587)
inactive: [1] 0.019 | [2] -0.004 | [3] 0.009 | [4] 0.002 | [5] 0.013

ERGIC2 (UniProt Q96RQ1)
inactive: [1] -0.027 | [2] 0.045 | [3] 0.098 | [4] -0.031 | [5] 0.024

FAH (UniProt P16930)
inactive: [1] 0.012 | [2] 0.014 | [3] 0.046 | [4] -0.021 | [5] -0.023

EZH2 isoform 2 (UniProt Q15910)
inactive: [1] 0.023 | [2] -0.056 | [3] -0.14 | [4] 0.016 | [5] -0.034

EPRS (UniProt P07814)
inactive: [1] 0.026 | [2] -0.205 | [3] -0.105 | [4] 0.224 | [5] 0.009

FAM172A (UniProt Q8WUF8)
inactive: [1] 0 | [2] -0.001 | [3] 0.049 | [5] 0.036

Copied from the entries so far (5 entries):
ERGIC2 (UniProt Q96RQ1)
inactive: [1] -0.027 | [2] 0.045 | [3] 0.098 | [4] -0.031 | [5] 0.024

FAH (UniProt P16930)
inactive: [1] 0.012 | [2] 0.014 | [3] 0.046 | [4] -0.021 | [5] -0.023

EZH2 isoform 2 (UniProt Q15910)
inactive: [1] 0.023 | [2] -0.056 | [3] -0.14 | [4] 0.016 | [5] -0.034

EPRS (UniProt P07814)
inactive: [1] 0.026 | [2] -0.205 | [3] -0.105 | [4] 0.224 | [5] 0.009

FAM172A (UniProt Q8WUF8)
inactive: [1] 0 | [2] -0.001 | [3] 0.049 | [5] 0.036

Next part

FADD (UniProt Q13158)
inactive: [1] -0.055 | [2] 0.01 | [3] 0.021 | [4] 0.087 | [5] -0.024

EXOSC2 (UniProt Q13868)
inactive: [1] 0.047 | [2] -0.004 | [3] 0.066 | [4] -0.033 | [5] 0.028

FAM118B (UniProt Q9BPY3)
inactive: [1] -0.276 | [2] -0.01 | [3] 0.208 | [4] -0.019 | [5] -0.009

FAM114A2 (UniProt Q9NRY5)
inactive: [1] -0.046 | [2] 0.047 | [3] 0.018 | [4] 0.033 | [5] 0.006

EXOC4 (UniProt Q96A65)
inactive: [1] -0.05 | [2] 0.052 | [3] 0.015 | [4] 0.081 | [5] -0.049

ERO1B (UniProt Q86YB8)
inactive: [1] 0.035 | [2] -0.022 | [3] 0.064 | [5] -0.008

EXOSC5 (UniProt Q9NQT4)
inactive: [1] -0.004 | [2] 0.005 | [3] -0.036 | [4] 0.018 | [5] -0.033

EXOSC1 (UniProt Q9Y3B2)
inactive: [1] 0.002 | [2] -0.106 | [3] -0.116 | [4] 0.033 | [5] -0.027

EXOSC7 (UniProt Q15024)
inactive: [1] 0.051 | [2] -0.012 | [3] 0.018 | [4] 0.013 | [5] 0.053

ERGIC3 isoform 3 (UniProt Q9Y282)
inactive: [1] -0.001 | [2] -0.016 | [3] -0.004 | [4] -0.014 | [5] 0.03

From the supplement of paper PMC10849652
